The list shows only some results of the screen, not a fair sample: it gathers tests that were run many times, whatever their T/C, doses with no T/C, and many T/C values between a quarter and a half above the control. Other doses and runs of a compound stand elsewhere. T/C is the treated group as % of the vehicle group. Some doses have a count of surviving animals in place of a T/C: the source holds a T/C of zero for them, seemingly a mark for toxic or unscored doses. Some survivor counts are full or nearly so, which does not show that the dose was tolerated: the source hardly ever lists a survival T/C far under the control, and the zero likely stands for such cases as well. Survivors were counted at the toxicity check, usually on the fifth day, unless a day is given; later deaths do not show. Schedules are NCI's codes, read here as Q, the interval in days (D) or hours (H), X, the number of doses. Some entries were tested several times; the results are listed from low to high. For survival time, the PubChem record calls one and a half times the control and up active, and a quarter to a half above the control has no call in these data; cut-offs in other NCI protocols can differ.

Survivor count and T/C data for 24 compounds are collected here from PubChem BioAssay AID330 (DTP/NCI, 2004).

In the assay the test system is P388 leukemia ip, CD2F1 mice, survival T/C. The assay can be described thus: NCI In Vivo Anticancer Drug Screen. Data for tumor model P388 Leukemia (intraperitoneal) in CD2F1 (CDF1) mice. The note with it: T/C endpoint: median survival time, higher T/C = longer survival.
[1] abbreviates: dose: 60.0 mg/kg/injection, schedule: Q01DX005 (ip), vehicle: saline with Tween-80.
The mark [2] stands for this setting: dose: 120.0 mg/kg/injection, schedule: Q01DX005 (ip), vehicle: saline with Tween-80.
The mark [3] stands for this setting: dose: 240.0 mg/kg/injection, schedule: Q01DX005 (ip), vehicle: saline with Tween-80.
The mark [4] stands for this setting: dose: 60.0 mg/kg/injection, schedule: Q01DX005 (ip), vehicle: Klucel (hydroxypropylcellulose) (HPC).
[5] abbreviates: dose: 240.0 mg/kg/injection, schedule: Q01DX005 (ip), vehicle: Klucel (hydroxypropylcellulose) (HPC).
Setting [6] is: dose: 100.0 mg/kg/injection, schedule: Q01DX009 (ip), vehicle: saline with Tween-80.
Where [7] appears, read: dose: 100.0 mg/kg/injection, schedule: Q01DX009 (ip), vehicle: Klucel (hydroxypropylcellulose) (HPC).
Setting [8] is: dose: 200.0 mg/kg/injection, schedule: Q01DX009 (ip), vehicle: Klucel (hydroxypropylcellulose) (HPC).
Setting [9] is: dose: 50.0 mg/kg/injection, schedule: Q01DX009 (ip), vehicle: saline with Tween-80.
Where [10] appears, read: dose: 25.0 mg/kg/injection, schedule: Q01DX009 (ip), vehicle: saline.
[11] abbreviates: dose: 50.0 mg/kg/injection, schedule: Q01DX009 (ip), vehicle: saline.
The mark [12] stands for this setting: dose: 15.0 mg/kg/injection, schedule: Q01DX005 (ip), vehicle: saline with Tween-80.

`Cc1cc2c3ccc(C)[n+](C)c3ccc2n1C`: the survivor count reads like this: (dose: 5.0 mg/kg/injection, schedule: Q01DX010 (ip), vehicle: saline) 0 of 6; (dose: 10.0 mg/kg/injection, schedule: Q01DX010 (ip), vehicle: saline) 0 of 6.
`CCN1CCC(C2(C(=O)OC)c3ccccc3-c3ccccc32)C1` (stereo not given): the survivor count by setting is: (dose: 200.0 mg/kg/injection, schedule: Q04DX003 (ip), vehicle: saline) 0 of 6; (dose: 400.0 mg/kg/injection, schedule: Q04DX003 (ip), vehicle: saline) 0 of 6.
Take `O=C1C=CC(=O)N1c1ccccc1[N+](=O)[O-]`: the survivor count is, setting by setting: (dose: 3.0 mg/kg/injection, schedule: Q01DX009 (ip), vehicle: saline with Tween-80) 4 of 6; (dose: 12.0 mg/kg/injection, schedule: Q01DX009 (ip), vehicle: saline with Tween-80) 3 of 6.
`COC12CC3C4=CCOC5CC(=O)N6c7ccccc7C1(CCN2C4)C6C53` (stereo not given): the survivor count by setting is: under setting [1], 0 of 6; under setting [2], 0 of 6; under setting [3], 0 of 6.
In the case of `CN1CC(=O)[O][Sn]([CH3])([CH3])[O]C(=O)C1`, the survivor count is 0 of 6 under setting [4], 2 of 6 under setting [1], 1 of 6 under setting [2] and 0 of 6 under setting [3]. The T/C under setting [1] was 128 % of control.
Regarding `C#CC1=CC(=O)C(OC)=CC1=O`, the survivor count (dose: 30.0 mg/kg/injection, schedule: Q01DX005 (ip), vehicle: Klucel (hydroxypropylcellulose) (HPC)) is 2 of 6; the survivor count under setting [4] is listed as 0 of 6; the survivor count (dose: 120.0 mg/kg/injection, schedule: Q01DX005 (ip), vehicle: Klucel (hydroxypropylcellulose) (HPC)) was 0 of 6; the survivor count under setting [5] is 0 of 6.
As for `CCCCCCCCCCCc1n(Cc2ccccc2)c2ccccc2[n+]1C`, the survivor count (dose: 1.0 mg/kg/injection, schedule: Q01DX009 (ip), vehicle: saline sonified) was 4 of 6.
With `CCN(CC)CCNC(c1ccc(OC)cc1)C(Cl)(Cl)Cl` (stereo not given), where the note is “dose: 240.0 mg/kg/injection, schedule: Q01DX005 (ip), vehicle: saline”, the survivor count is 3 of 6.
In the case of `CCC/C=C\C=C\C(=O)OC1C2C=C3CC(C(C)O)OC(=O)CC(O)CC4CC(OC(C)=O)C(C)(C)C(O)(CC5C/C(=C\C(=O)OC)CC(/C=C/C(C)(C)C16OC(=O)C(O)C32O6)O5)O4` (stereo not given), the survivor count is 2 of 4 (dose: 0.06 mg/kg/injection, schedule: Q01DX009 (ip), vehicle: saline + alcohol); 1 of 4 (dose: 0.12 mg/kg/injection, schedule: Q01DX009 (ip), vehicle: saline + alcohol); 0 of 5 (dose: 0.25 mg/kg/injection, schedule: Q01DX009 (ip), vehicle: saline + alcohol); 0 of 5 (dose: 0.5 mg/kg/injection, schedule: Q01DX009 (ip), vehicle: saline + alcohol); 0 of 5 (dose: 1.0 mg/kg/injection, schedule: Q01DX009 (ip), vehicle: saline + alcohol). In addition, the T/C (dose: 5.0 micrograms/kg/injection, schedule: Q01DX009 (ip), vehicle: saline + alcohol) was 134 % of control and the T/C (dose: 10.0 micrograms/kg/injection, schedule: Q01DX009 (ip), vehicle: saline + alcohol) was 142 % of control.
Take `O=C(O)/C=C\C(=O)OCc1ccc(Cl)cc1Cl`: the survivor count under setting [6] is recorded as 4 of 6.
For the compound `C=C(C#N)COc1ccc(Cl)cc1C`, the survivor count is reported as 0 of 6 under setting [7] and 0 of 6 under setting [8].
In the case of `C=C(CO)C(=O)OC1CC(=C)C2CC(O)C(C)C2C2OC(=O)C(=C)C12` (stereo not given), the T/C (dose: 3.0 mg/kg/injection, schedule: Q01DX009 (ip), vehicle: Klucel (hydroxypropylcellulose) (HPC)) is 125 % of control.
Turning to `Cn1c2nc(=O)n(-c3ccccc3)c(=O)c-2nc2c1CCCC2`, the T/C is, setting by setting: (dose: 25.0 mg/kg/injection, schedule: Q01DX009 (ip), vehicle: saline with Tween-80) 135 % of control; under setting [9], 135 % of control; under setting [6], 137 % of control.
For the compound `Cc1cc(N(CCOS(C)(=O)=O)CCOS(C)(=O)=O)ccc1C=Nc1ccc(-c2nc(Cc3ccccc3)sc2C)cc1`, the T/C is, setting by setting: (dose: 12.5 mg/kg/injection, schedule: Q01DX009 (ip), vehicle: Klucel (hydroxypropylcellulose) (HPC)) 145 % of control; (dose: 50.0 mg/kg/injection, schedule: Q01DX009 (ip), vehicle: Klucel (hydroxypropylcellulose) (HPC)) 155, 174, 175, 190 % of control; under setting [7], 106, 112, 125, 155 % of control; (dose: 100.0 mg/kg/injection, schedule: Q01DX009 (oral), vehicle: Klucel (hydroxypropylcellulose) (HPC)) 136 % of control; under setting [8], 97 and 133 % of control. For the same compound, the survivor count was 10 of 10 and 6 of 6 under setting [8]; 10 of 10 (dose: 400.0 mg/kg/injection, schedule: Q01DX009 (oral), vehicle: Klucel (hydroxypropylcellulose) (HPC)).
For the compound `CCCCCCN(CCCCCC)P(=O)(N1CC1)N1CC1`, the T/C is 131 % of control under setting [10] and 127 % of control (dose: 50.0 mg/kg/injection, schedule: Q04DX003 (ip), vehicle: saline with Tween-80). For the same compound, the survivor count under setting [11] is recorded as 2 of 6; the survivor count (dose: 100.0 mg/kg/injection, schedule: Q04DX003 (ip), vehicle: saline with Tween-80) is given as 5 of 6; the survivor count (dose: 200.0 mg/kg/injection, schedule: Q04DX003 (ip), vehicle: saline with Tween-80) is 1 of 6; the survivor count (dose: 400.0 mg/kg/injection, schedule: Q04DX003 (ip), vehicle: saline with Tween-80) was 0 of 6.
Take `O=C(O)CCCc1cc(I)c(N(CCCl)CCCl)c(I)c1`: the T/C was 125 % of control under setting [9]; 127 and 133 % of control under setting [6]. Also, under “dose: 200.0 mg/kg/injection, schedule: Q01DX009 (ip), vehicle: saline with Tween-80”, the survivor count is listed as 5 of 6.
Turning to `CC(=O)c1ccc2oc(C(C)=O)cc2c1`, the survivor count (dose: 10.0 mg/kg/injection, schedule: Q01DX009 (ip), vehicle: saline with Tween-80) is on record as 6 of 6.
Take `N#CC1=C(C#N)Sc2nc3cc(Cl)ccc3nc2S1`: the survivor count by setting is: under setting [10], 5 of 6; under setting [11], 5 of 6; (dose: 100.0 mg/kg/injection, schedule: Q01DX009 (ip), vehicle: saline) 4 of 6; (dose: 200.0 mg/kg/injection, schedule: Q01DX009 (ip), vehicle: saline) 2 of 6.
As to `COc1cc2c(=O)oc3c(OC)c(O)cc4c(=O)oc(c1OC)c2c34`, for the setting “dose: 16.0 mg/kg/injection, schedule: Q01DX005 (ip), vehicle: saline with Tween-80”, the T/C is 144 % of control. For the same compound, for the setting “dose: 32.0 mg/kg/injection, schedule: Q01DX005 (ip), vehicle: saline with Tween-80”, the survivor count is on record as 6 of 6.
As to `COc1ccccc1C1OC2=C(Nc3ccc([N+](=O)[O-])cc3N2)C1=O` (stereo not given), the survivor count is 6 of 6 under setting [4] and 6 of 6 under setting [5].
In the case of `O=[N+]([O-])c1ccc(C2=Nc3ccccc3N=C(c3ccccc3O)C2)cc1`, the survivor count by setting is: (dose: 7.5 mg/kg/injection, schedule: Q01DX005 (ip), vehicle: saline with Tween-80) 6 of 6; under setting [12], 6 of 6; (dose: 30.0 mg/kg/injection, schedule: Q01DX005 (ip), vehicle: saline with Tween-80) 6 of 6; under setting [1], 6 of 6; under setting [2], 4 of 6.
Take `N=C(N)SCCCCCCCCCCSC(=N)N`: the survivor count under setting [9] is 2 of 6; the survivor count under setting [6] was 0 of 6 and 3 of 6.
With `CCN=NNc1ccc(C#N)cc1`, the survivor count (dose: 100.0 mg/kg/injection, schedule: Q01DX009 (ip), vehicle: distilled water + Tween-80) is reported as 3 of 3.
For `COc1ccc(N=N/N=c2\sc3cc(OC)ccc3n2C)cc1`, the T/C under setting [12] was 137 % of control. Moreover, the survivor count by setting is: under setting [1], 4 of 6; under setting [2], 5 of 6.
